Test [1] has as its target OsJAZ4-2 (rice). As to the kind of experiment: two-hybrid; each of 13 full-length OsJAZs as BD (bait, left column) and AD (prey, top row) fusion; yeast Y2HGold; growth on SD/-Leu/-Trp/-His/-Ade; graded strong (++), weak (+), undetectable (-).
Test [2] has as its target OsJAZ13 (rice). The description is as above.
The target of test [3] is OsJAZ11 (rice). The test is described as above.
For test [4], the target named is OsJAZ10 (rice). Described as above.
Test [5] deals with OsJAZ11-cYFP (rice). Nature of the test: split reporter; BiFC: nYFP and cYFP fusions coexpressed in Nicotiana benthamiana (tobacco) leaf epidermal cells by Agrobacterium infiltration; YFP fluorescence by confocal microscopy.

No constants are given. Whether binding was seen depends on the method and setting. Binding can be weak; no strength is given. For part of these data: Binding seen in cells or lysates may run through a third protein. For part of these data: Tags and fused reporters may be left off the sequences shown.

B1: OsJAZ5 (protein, UniProt Q7XV97 1-188)
chain: MSTRAPVELDFLGLRAAAADADDRHAKSGGSSASSSSSIRGMETSAIARIGPHLLRRVIAAAGPPPPPSTAPVPEEMPGAAAAAAPMTLFYNGSVAVFDVSHDKAEAIMRMATEATKAKGLARGNAIVGNFAKEPLTRTKSLQRFLSKRKERLTSLGPYQVGGPAAVGATTSTTTKSFLAKEEEHTAS
Consider B1, for which the binding result in test [1] was “binds”; in test [2] it was “no binding”; in test [3] it was “binds”; in test [4], “binds”.

B2: OsJAZ3 (protein, UniProt Q6ZJU3 1-427)
chain: MERDFLGAIWRKEEAAGKPEEHSDYRGGGGGASAAMQWQFPATKVGAASSAFMSFRSSAAAAREEDPKEAAVFDRFSLSGFRPPPRPSPGDAFDGAAAMKQRQFGFNGRQQYAAAAQHGHREQGVDSYGVAAPHHFPSPSPSPRHPVPFGHANPMLRVHSLPNVAGGSPYRNQSFSVGNSVAGSTVGVYGGPRDLQNPKVTQMTIFYDGLVNVFDNIPVEKAQELMLLASRASIPSPPSAARKSDSPISAAAKLTVPEALPARQIVVQKPEASVPLVSGVSNPITIVSQAVTLPKSFSSSNDSAGPKSGGLPLAVTPLSQASPSQPIPVATTNASAIMPRAVPQARKASLARFLEKRKERVSSVAPYPSSKSPLESSDTIGSPSTPSKSSCTDITPSTNNCEDSLCLGQPRNISFSSQEPPSTKLQI
Consider B2, for which the binding entry in test [1] was “binds”; in test [2], “binds”; in test [3], “no binding”.

B3: OsJAZ1 (protein, UniProt Q7XPM8 1-216)
chain: MDLLEKKNIKKGGEVEEEVARKGEERKEEEVVVEEKSHQQQQQQGEEELVGLSLAGGRPKVFPMSSPPPNPSQLTIFYGGSVCVYDSVPPEKAQAIMLIAAAAAAAASATKSNAAIAVKPPVMPAANATQAAVSPVLTRSLSLQSTSVATGQPQVAADPSSICKLQADLPIARRHSLQRFLEKRRDRLVSKAPYPTKSSEGMEASGMEVTAEGKAQ
In the case of B3, the binding entry is “no binding” in test [1], “no binding” in test [2] and “binds” in test [3].

B4: OsJAZ9 (protein, UniProt Q8GSI0 1-179)
chain: MASTDPMTRRFAVACGVLSQYVKANSSQPSTAAPVAQGVSGLMAAAAAAAAAPVVQEPGCEVDGGGQQFTIFYAGKVVVIDRCTPAMAAELMRFASAAQGGGGAPEAPPALVDMPIARKASLKRFLAKRKATPASARSSYVVRAAAAEEEQPPAKKAKAAVERREDWLALGSLGHMHSR
For B4, the binding entry in test [1] is on record as “binds”; in test [2], “no binding”; in test [3], “no binding”; in test [4] it was “binds”.

B5: OsJAZ8 (protein, UniProt Q69P94 1-232)
chain: MAGRATATATAAGKDRSSFAVTCSLLSQFLKEKKGGGGGLQGLGLGLRPAPAAPPAAGAGGAFRPPPTTMNLLSGLDAPAVEVEPNTAETAADELPLIKAPADQQSDESASEAAGEKAQQLTIFYGGKVVVFENFPSTKVKDLLQIVSTGDGVDKNTGTAATQSLPRPAHNSLPDLPIARRNSLHRFLEKRKGRMNANAPYQANCTAAPSKQANGDKSWLGFGQEMTIKQEI
For the molecule B5, the binding entry in test [1] is “no binding”; in test [2] it was “binds”; in test [3], “no binding”; in test [4] it was “no binding”.

B6: OsJAZ6 (protein, UniProt Q84R94 1-228)
chain: MASAKSGERGSSSFAMACSLLSRYVRQNGAAAGELGLGIRGEADANKGKETMELFPQNSGFGSEAAAVKETPDAREQEKRQLTIFYGGKVLVFDDFPAEKAKDLMQMASKSSSTAQNCVLLPSSATATVADNTKVSAVPAPASALPVAQANAPKPVRPNAADLPQARKASLHRFLEKRKDRLQAKAPYQGSPSDASPVKKELQESQPWLGLGPQVAAPDLSLRQESSQ
As to B6, the binding entry in test [1] is recorded as “binds”; in test [2], “no binding”; in test [3], “binds”.

B7: OsJAZ6-nYFP (protein, UniProt Q84R94 1-228)
chain: MASAKSGERGSSSFAMACSLLSRYVRQNGAAAGELGLGIRGEADANKGKETMELFPQNSGFGSEAAAVKETPDAREQEKRQLTIFYGGKVLVFDDFPAEKAKDLMQMASKSSSTAQNCVLLPSSATATVADNTKVSAVPAPASALPVAQANAPKPVRPNAADLPQARKASLHRFLEKRKDRLQAKAPYQGSPSDASPVKKELQESQPWLGLGPQVAAPDLSLRQESSQ
Regarding B7, in test [5], the binding entry is recorded as “binds”.

B8: OsJAZ12 (protein, UniProt Q7XEZ1 1-171)
chain: MAAAGSSSRFAVTCGLLSQYMRERQQPQPPVTVLEAVAEEEEEEDARTMQLFPPRAAAADGVATPSAGTAPLTIFYDGRMVVVDDVPVEKAAELMRLAGSACSPPQPAHAAALPEMPIARKASLQRFLQKRKHRITTTSEPYKKAAVASPAPEKSFAVAPVKDEPATWLGL
As for B8, the binding entry is listed as “binds” in test [1], “no binding” in test [2], “no binding” in test [3] and “binds” in test [4].

B9: OsJAZ4 (protein, UniProt Q6ES51 1-416)
chain: MERDFLGAIGKDEEQRRHAEERKESDYFGAGGGAAAAAMDWSFASRAALMSFRSSSSAAAAAAREETRELAFPHFSALDGAKMQQASHVLARQKSFGAESHGIPQYAAAAAVHGAHRGQPPHVLNGARVIPASSPFNPNNPMFRVQSSPNLPNAVGAGGGAFKQPPFAMGNAVAGSTVGVYGTRDMPKAKAAQLTIFYAGSVNVFNNVSPEKAQELMFLASRGSLPSAPTTVARMPEAHVFPPAKVTVPEVSPTKPMMLQKPQLVSSPVPAISKPISVVSQATSLPRSASSSNVDSNVTKSSGPLVVPPTSLPPPAQPETLATTTAAAIMPRAVPQARKASLARFLEKRKERVTTVAPYPLAKSPLESSDTMGSANDNKSSCTDIALSSNRDESLSLGQPRTISFCEESPSTKLQI
Turning to B9, the binding result is recorded as “binds” in test [1], “binds” in test [2] and “binds weakly” in test [4].

B10: OsJAZ7 (protein, UniProt Q8H395 1-244)
chain: MAASARPVGVGGERATSFAMACSLLSRYVRQNGAAAAELGLGIRGEGEAPRAAPATMSLLPGEAERKKETMELFPQSAGFGQQDAITADSAADAREQEPEKRQLTIFYGGKVLVFNDFPADKAKGLMQLASKGSPVAPQNAAAPAPAAVTDNTKAPMAVPAPVSSLPTAQADAQKPARANASDMPIARKASLHRFLEKRKDRLNAKTPYQASPSDATPVKKEPESQPWLGLGPNAVVKPIERGQ
On to B10, for which the binding entry in test [1], in test [2] and in test [3] was “binds” throughout.

B11: OsJAZ7-nYFP (protein, UniProt Q8H395 1-244)
chain: MAASARPVGVGGERATSFAMACSLLSRYVRQNGAAAAELGLGIRGEGEAPRAAPATMSLLPGEAERKKETMELFPQSAGFGQQDAITADSAADAREQEPEKRQLTIFYGGKVLVFNDFPADKAKGLMQLASKGSPVAPQNAAAPAPAAVTDNTKAPMAVPAPVSSLPTAQADAQKPARANASDMPIARKASLHRFLEKRKDRLNAKTPYQASPSDATPVKKEPESQPWLGLGPNAVVKPIERGQ
As for B11, the binding entry in test [5] is reported as “binds”.

The record behind these values is article PMC9103030.
